The values below come from article PMC10247930 (EJNMMI Research, 2023).

A short description of this series: peptide made by a vendor (Fmoc solid-phase peptide synthesis; Rink amide MBHA resin; HATU). The settings on record: whole synthesis, UV220.

Some peptides are written in HELM: one residue between dots, names in brackets for other building blocks, links after the first $. The same purity stands for every peptide and may come from a single statement.

Turning to “PEPTIDE1{[DOTA].[APip].[dF].Q.W.A.V.G.H.[Sta].L.[am]}$$$$V2.0”, the “final HPLC purity” value is given as above 95%.
